Results: the supplement of paper PMC12823440, “Inhibitors supercharge kinase turnover through native proteolytic circuits” (Nature, 2025)
Structures can show the parent of a compound that is named as a salt. Some of the results follow. The calls rarely recur for the same compound in another form.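 Kinases were expressed as nanoluciferase fusions in K562 cells and luminescence was read every 4 h between 2 and 18 h as percent of control, DMSO set to 100% and a positive control to 0%. A time point counts as decreased when the signal drops significantly (2 sigma). The hit call is the authors' own, does not follow from the count of time points alone, and its rule is not shown.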

Sequences of proteins named here, by UniProt entry; tags and fusion partners are left off. A change or cut given only in a name is not applied to a line headed by its entry.
UniProt Q15208: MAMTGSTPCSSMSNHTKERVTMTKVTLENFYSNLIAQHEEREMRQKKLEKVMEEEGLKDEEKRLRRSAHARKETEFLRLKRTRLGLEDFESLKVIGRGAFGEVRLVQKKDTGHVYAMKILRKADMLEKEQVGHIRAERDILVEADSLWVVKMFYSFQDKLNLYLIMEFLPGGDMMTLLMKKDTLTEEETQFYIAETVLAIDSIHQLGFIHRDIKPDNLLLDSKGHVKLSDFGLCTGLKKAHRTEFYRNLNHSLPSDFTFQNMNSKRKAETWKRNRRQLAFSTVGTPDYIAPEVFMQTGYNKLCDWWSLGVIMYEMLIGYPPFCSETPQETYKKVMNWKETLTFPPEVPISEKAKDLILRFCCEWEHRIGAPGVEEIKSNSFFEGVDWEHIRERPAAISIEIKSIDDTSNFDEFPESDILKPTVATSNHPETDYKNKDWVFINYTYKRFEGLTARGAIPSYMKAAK
UniProt P42680: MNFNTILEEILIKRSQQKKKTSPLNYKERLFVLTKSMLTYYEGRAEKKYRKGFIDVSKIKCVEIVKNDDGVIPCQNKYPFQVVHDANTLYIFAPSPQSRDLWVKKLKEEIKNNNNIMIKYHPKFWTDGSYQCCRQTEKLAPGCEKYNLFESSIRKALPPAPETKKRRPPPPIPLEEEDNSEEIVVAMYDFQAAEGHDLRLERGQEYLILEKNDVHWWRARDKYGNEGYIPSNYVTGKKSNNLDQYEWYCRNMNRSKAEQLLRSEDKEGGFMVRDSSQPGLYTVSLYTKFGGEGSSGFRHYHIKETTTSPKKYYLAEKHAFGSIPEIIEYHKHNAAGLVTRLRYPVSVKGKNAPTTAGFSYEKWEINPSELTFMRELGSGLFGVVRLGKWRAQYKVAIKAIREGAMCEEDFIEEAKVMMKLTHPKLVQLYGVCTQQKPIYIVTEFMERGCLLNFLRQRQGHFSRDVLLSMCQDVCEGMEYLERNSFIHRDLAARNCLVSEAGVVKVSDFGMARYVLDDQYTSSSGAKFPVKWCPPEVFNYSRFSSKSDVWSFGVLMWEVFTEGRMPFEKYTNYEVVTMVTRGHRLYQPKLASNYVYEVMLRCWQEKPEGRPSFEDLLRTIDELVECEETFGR
UniProt P29597: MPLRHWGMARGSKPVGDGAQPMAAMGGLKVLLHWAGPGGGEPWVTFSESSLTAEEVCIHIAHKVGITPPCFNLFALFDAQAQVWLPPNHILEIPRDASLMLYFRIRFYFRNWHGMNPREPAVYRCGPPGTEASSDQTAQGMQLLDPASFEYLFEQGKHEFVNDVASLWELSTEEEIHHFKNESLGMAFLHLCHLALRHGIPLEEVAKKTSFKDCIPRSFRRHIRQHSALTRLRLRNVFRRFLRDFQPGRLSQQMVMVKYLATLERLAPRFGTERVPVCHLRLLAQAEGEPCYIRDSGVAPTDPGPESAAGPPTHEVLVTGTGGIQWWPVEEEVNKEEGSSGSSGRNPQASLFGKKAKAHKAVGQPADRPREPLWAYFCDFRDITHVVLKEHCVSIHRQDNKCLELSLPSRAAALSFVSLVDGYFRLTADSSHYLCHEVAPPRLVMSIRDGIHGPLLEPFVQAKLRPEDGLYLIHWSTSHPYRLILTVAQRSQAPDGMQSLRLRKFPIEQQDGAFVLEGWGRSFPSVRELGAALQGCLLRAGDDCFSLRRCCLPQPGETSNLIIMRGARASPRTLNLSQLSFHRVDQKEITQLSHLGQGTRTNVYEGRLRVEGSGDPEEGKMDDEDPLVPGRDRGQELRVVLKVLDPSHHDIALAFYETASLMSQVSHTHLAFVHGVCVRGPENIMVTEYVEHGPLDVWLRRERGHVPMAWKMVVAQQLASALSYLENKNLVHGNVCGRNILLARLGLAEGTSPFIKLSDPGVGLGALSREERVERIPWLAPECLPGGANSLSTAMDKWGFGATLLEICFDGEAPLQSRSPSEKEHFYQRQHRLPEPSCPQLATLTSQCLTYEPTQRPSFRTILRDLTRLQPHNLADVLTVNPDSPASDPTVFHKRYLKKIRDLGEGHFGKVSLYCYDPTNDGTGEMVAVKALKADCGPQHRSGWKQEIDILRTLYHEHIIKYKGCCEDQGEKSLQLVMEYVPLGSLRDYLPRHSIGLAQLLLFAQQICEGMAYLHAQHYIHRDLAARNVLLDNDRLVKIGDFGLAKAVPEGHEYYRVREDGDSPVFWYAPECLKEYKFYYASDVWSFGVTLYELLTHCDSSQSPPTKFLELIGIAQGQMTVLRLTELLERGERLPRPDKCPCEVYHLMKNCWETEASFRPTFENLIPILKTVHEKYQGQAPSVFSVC
UniProt Q6PHR2: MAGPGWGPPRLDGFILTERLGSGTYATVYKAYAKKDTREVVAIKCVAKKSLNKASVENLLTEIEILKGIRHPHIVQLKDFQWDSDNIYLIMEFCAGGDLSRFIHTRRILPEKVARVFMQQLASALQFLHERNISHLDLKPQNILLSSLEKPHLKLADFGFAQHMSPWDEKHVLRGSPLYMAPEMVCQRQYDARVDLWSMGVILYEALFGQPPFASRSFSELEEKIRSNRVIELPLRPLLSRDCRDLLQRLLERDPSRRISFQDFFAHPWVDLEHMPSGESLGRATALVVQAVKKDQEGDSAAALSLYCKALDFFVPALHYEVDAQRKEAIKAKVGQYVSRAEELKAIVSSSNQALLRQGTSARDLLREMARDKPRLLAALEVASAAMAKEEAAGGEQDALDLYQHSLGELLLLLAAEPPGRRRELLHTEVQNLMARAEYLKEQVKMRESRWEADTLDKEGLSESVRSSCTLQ
UniProt P07947, whole entry, looked up: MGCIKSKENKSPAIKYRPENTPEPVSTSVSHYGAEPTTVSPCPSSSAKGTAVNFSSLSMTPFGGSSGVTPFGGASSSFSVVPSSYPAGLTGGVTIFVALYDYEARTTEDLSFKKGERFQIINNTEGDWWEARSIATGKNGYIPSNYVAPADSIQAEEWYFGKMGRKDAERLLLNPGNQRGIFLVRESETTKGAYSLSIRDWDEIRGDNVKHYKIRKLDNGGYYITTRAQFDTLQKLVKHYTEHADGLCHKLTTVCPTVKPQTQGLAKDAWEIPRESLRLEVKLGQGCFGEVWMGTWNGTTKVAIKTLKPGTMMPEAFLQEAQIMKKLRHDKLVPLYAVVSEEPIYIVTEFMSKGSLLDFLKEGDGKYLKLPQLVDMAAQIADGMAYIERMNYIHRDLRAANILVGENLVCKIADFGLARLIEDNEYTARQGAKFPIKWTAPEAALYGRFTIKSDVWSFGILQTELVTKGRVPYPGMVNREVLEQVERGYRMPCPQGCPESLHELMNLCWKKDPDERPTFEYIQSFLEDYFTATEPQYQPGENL
UniProt P43403: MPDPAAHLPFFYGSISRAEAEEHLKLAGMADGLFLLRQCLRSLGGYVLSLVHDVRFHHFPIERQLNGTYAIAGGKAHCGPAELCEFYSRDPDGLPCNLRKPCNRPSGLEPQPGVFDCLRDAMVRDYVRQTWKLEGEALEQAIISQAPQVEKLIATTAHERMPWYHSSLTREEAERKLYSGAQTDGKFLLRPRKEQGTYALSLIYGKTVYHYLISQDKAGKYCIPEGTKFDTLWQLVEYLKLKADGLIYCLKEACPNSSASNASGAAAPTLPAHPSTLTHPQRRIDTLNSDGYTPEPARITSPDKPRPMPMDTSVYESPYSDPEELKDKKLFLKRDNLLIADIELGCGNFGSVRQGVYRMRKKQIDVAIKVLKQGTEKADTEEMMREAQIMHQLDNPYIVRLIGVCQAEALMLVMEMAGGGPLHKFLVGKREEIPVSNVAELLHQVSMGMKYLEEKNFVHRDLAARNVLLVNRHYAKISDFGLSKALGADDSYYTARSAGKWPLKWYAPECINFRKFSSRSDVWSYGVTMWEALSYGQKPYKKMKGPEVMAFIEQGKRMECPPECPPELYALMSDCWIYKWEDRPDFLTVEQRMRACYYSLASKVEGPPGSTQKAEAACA
UniProt P11802: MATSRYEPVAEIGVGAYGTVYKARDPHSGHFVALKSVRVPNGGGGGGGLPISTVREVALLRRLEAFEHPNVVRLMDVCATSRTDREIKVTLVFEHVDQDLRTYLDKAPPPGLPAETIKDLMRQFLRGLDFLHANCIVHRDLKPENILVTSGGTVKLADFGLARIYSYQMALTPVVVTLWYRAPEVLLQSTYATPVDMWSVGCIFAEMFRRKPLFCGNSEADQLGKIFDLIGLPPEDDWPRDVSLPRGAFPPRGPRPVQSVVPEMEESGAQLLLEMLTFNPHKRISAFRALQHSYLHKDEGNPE
UniProt P50613: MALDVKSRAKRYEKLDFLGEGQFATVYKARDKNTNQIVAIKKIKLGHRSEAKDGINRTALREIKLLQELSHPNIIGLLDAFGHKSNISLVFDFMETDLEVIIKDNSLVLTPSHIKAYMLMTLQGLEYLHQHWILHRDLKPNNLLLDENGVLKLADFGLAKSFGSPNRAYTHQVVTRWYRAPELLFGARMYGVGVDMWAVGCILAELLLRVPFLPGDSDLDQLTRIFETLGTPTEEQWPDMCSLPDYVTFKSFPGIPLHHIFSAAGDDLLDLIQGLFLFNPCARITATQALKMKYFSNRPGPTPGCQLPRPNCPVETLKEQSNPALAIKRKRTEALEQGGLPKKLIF
UniProt P50750, whole entry: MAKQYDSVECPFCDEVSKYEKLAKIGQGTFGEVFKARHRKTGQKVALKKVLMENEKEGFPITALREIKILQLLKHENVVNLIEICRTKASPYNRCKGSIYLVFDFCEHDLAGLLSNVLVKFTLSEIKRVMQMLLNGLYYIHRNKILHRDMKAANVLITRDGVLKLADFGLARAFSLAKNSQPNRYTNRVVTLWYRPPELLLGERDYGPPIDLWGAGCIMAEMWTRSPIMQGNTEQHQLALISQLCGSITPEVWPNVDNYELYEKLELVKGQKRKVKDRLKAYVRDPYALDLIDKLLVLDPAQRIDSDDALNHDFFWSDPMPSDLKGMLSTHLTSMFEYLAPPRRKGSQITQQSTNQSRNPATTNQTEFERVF

Experiments:
Conditions in all cases: K562, 2-18 h
STK38 = STK38 (UniProt Q15208); test: kinase-Nluc reporter destabilization hit call (1 = scored as downregulated) (binary); higher = compound decreases kinase abundance
SYK = SYK (UniProt P43405); test: as above
TEC = TEC (UniProt P42680); test: as above
TYK2 = TYK2 (UniProt P29597); test: as above
ULK3 = ULK3 (UniProt Q6PHR2); test: as above
YES1 = YES1 (UniProt P07947); test: as above
ZAK = ZAK (UniProt Q9NYL2); test: as above
ZAP70 = ZAP70 (UniProt P43403); test: as above
CDK4 = CDK4 (UniProt P11802); test: number of time points (of 4; 2 h point missing) at which kinase-Nluc abundance scored as decreased, DMSO-normalised (count); higher = more persistent destabilization
CDK7 = CDK7 (UniProt P50613); test: as above
CDK9 = CDK9 (UniProt P50750); test: as above

C=CC(=O)Nc1cc2c(Nc3ccc(F)c(Cl)c3)ncnc2cc1C#CC(C)(C)N1CCN(C)CC1
0: number of time points (CDK4; 2.5 µM) | number of time points (CDK7; 2.5 µM) | number of time points (CDK9; 2.5 µM)
inactive: kinase-Nluc reporter destabilization hit call (STK38; 2.5 µM) 0 | kinase-Nluc reporter destabilization hit call (SYK; 2.5 µM) 0 | kinase-Nluc reporter destabilization hit call (TEC; 2.5 µM) 0 | kinase-Nluc reporter destabilization hit call (TYK2; 2.5 µM) 0 | kinase-Nluc reporter destabilization hit call (ULK3; 2.5 µM) 0 | kinase-Nluc reporter destabilization hit call (YES1; 2.5 µM) 0 | kinase-Nluc reporter destabilization hit call (ZAK; 2.5 µM) 0 | kinase-Nluc reporter destabilization hit call (ZAP70; 2.5 µM) 0

COc1ncc(F)cc1CNc1ccc(Cc2c[nH]c3ncc(C)cc23)c(F)n1
inactive: kinase-Nluc reporter destabilization hit call (STK38; 10 µM) 0 | kinase-Nluc reporter destabilization hit call (SYK; 10 µM) 0 | kinase-Nluc reporter destabilization hit call (TEC; 10 µM) 0 | kinase-Nluc reporter destabilization hit call (TYK2; 10 µM) 0 | kinase-Nluc reporter destabilization hit call (ULK3; 10 µM) 0 | kinase-Nluc reporter destabilization hit call (YES1; 10 µM) 0 | kinase-Nluc reporter destabilization hit call (ZAK; 10 µM) 0 | kinase-Nluc reporter destabilization hit call (ZAP70; 10 µM) 0
0: number of time points (CDK4; 10 µM) | number of time points (CDK7; 10 µM) | number of time points (CDK9; 10 µM)

C=CC(=O)Nc1cc(Nc2nccc(-c3cn(C)c4ccccc34)n2)c(OC)cc1N(C)CCN(C)C [Osimertinib (dimesylate)]
0: number of time points (CDK4; 2.5 µM) | number of time points (CDK7; 2.5 µM) | number of time points (CDK9; 2.5 µM)
inactive: kinase-Nluc reporter destabilization hit call (STK38; 2.5 µM) 0 | kinase-Nluc reporter destabilization hit call (SYK; 2.5 µM) 0 | kinase-Nluc reporter destabilization hit call (TEC; 2.5 µM) 0 | kinase-Nluc reporter destabilization hit call (TYK2; 2.5 µM) 0 | kinase-Nluc reporter destabilization hit call (ULK3; 2.5 µM) 0 | kinase-Nluc reporter destabilization hit call (YES1; 2.5 µM) 0 | kinase-Nluc reporter destabilization hit call (ZAK; 2.5 µM) 0 | kinase-Nluc reporter destabilization hit call (ZAP70; 2.5 µM) 0

COc1cc(/C=C/C(=O)O)ccc1O [Ferulic acid (sodium)]
inactive: kinase-Nluc reporter destabilization hit call (STK38; 10 µM) 0 | kinase-Nluc reporter destabilization hit call (SYK; 10 µM) 0 | kinase-Nluc reporter destabilization hit call (TEC; 10 µM) 0 | kinase-Nluc reporter destabilization hit call (TYK2; 10 µM) 0 | kinase-Nluc reporter destabilization hit call (ULK3; 10 µM) 0 | kinase-Nluc reporter destabilization hit call (YES1; 10 µM) 0 | kinase-Nluc reporter destabilization hit call (ZAK; 10 µM) 0 | kinase-Nluc reporter destabilization hit call (ZAP70; 10 µM) 0
0: number of time points (CDK4; 10 µM) | number of time points (CDK7; 10 µM) | number of time points (CDK9; 10 µM)

CCS(=O)(=O)N1CCN(c2ccc(Nc3ncc(C(N)=O)c(NC4CC4)n3)cc2)CC1 [Cerdulatinib]
0: number of time points (CDK4; 10 µM) | number of time points (CDK9; 10 µM)
1: number of time points (CDK7; 10 µM)
inactive: kinase-Nluc reporter destabilization hit call (STK38; 10 µM) 0 | kinase-Nluc reporter destabilization hit call (SYK; 10 µM) 0 | kinase-Nluc reporter destabilization hit call (TEC; 10 µM) 0 | kinase-Nluc reporter destabilization hit call (TYK2; 10 µM) 0 | kinase-Nluc reporter destabilization hit call (ULK3; 10 µM) 0 | kinase-Nluc reporter destabilization hit call (YES1; 10 µM) 0 | kinase-Nluc reporter destabilization hit call (ZAK; 10 µM) 0 | kinase-Nluc reporter destabilization hit call (ZAP70; 10 µM) 0

C#Cc1cccc(Nc2ncnc3cc(OCCOC)c(OCCOC)cc23)c1 [Erlotinib (Hydrochloride)]
0: number of time points (CDK4; 10 µM) | number of time points (CDK7; 10 µM) | number of time points (CDK9; 10 µM)
inactive: kinase-Nluc reporter destabilization hit call (STK38; 10 µM) 0 | kinase-Nluc reporter destabilization hit call (SYK; 10 µM) 0 | kinase-Nluc reporter destabilization hit call (TEC; 10 µM) 0 | kinase-Nluc reporter destabilization hit call (TYK2; 10 µM) 0 | kinase-Nluc reporter destabilization hit call (ULK3; 10 µM) 0 | kinase-Nluc reporter destabilization hit call (YES1; 10 µM) 0 | kinase-Nluc reporter destabilization hit call (ZAK; 10 µM) 0 | kinase-Nluc reporter destabilization hit call (ZAP70; 10 µM) 0

COc1cc2c(cc1OC)-c1c(C)c3ccc(OC)c(OC)c3c[n+]1CC2 [Dehydrocorydaline]
inactive: kinase-Nluc reporter destabilization hit call (STK38; 10 µM) 0 | kinase-Nluc reporter destabilization hit call (SYK; 10 µM) 0 | kinase-Nluc reporter destabilization hit call (TEC; 10 µM) 0 | kinase-Nluc reporter destabilization hit call (TYK2; 10 µM) 0 | kinase-Nluc reporter destabilization hit call (ULK3; 10 µM) 0 | kinase-Nluc reporter destabilization hit call (YES1; 10 µM) 0 | kinase-Nluc reporter destabilization hit call (ZAK; 10 µM) 0 | kinase-Nluc reporter destabilization hit call (ZAP70; 10 µM) 0
0: number of time points (CDK4; 10 µM) | number of time points (CDK7; 10 µM) | number of time points (CDK9; 10 µM)

CN(C)C(=O)c1cc2cnc(Nc3ccc(N4CCNCC4)cn3)nc2n1C1CCCC1 [Ribociclib hydrochloride]
0: number of time points (CDK4; 2.5 µM) | number of time points (CDK7; 2.5 µM) | number of time points (CDK9; 2.5 µM)
inactive: kinase-Nluc reporter destabilization hit call (STK38; 2.5 µM) 0 | kinase-Nluc reporter destabilization hit call (SYK; 2.5 µM) 0 | kinase-Nluc reporter destabilization hit call (TEC; 2.5 µM) 0 | kinase-Nluc reporter destabilization hit call (TYK2; 2.5 µM) 0 | kinase-Nluc reporter destabilization hit call (ULK3; 2.5 µM) 0 | kinase-Nluc reporter destabilization hit call (YES1; 2.5 µM) 0 | kinase-Nluc reporter destabilization hit call (ZAK; 2.5 µM) 0 | kinase-Nluc reporter destabilization hit call (ZAP70; 2.5 µM) 0

O=C1Nc2ccccc2/C1=C/c1ccccn1 [GSK-3β inhibitor 1]
0: number of time points (CDK4; 10 µM) | number of time points (CDK9; 10 µM)
inactive: kinase-Nluc reporter destabilization hit call (STK38; 10 µM) 0 | kinase-Nluc reporter destabilization hit call (SYK; 10 µM) 0 | kinase-Nluc reporter destabilization hit call (TEC; 10 µM) 0 | kinase-Nluc reporter destabilization hit call (TYK2; 10 µM) 0 | kinase-Nluc reporter destabilization hit call (ULK3; 10 µM) 0 | kinase-Nluc reporter destabilization hit call (YES1; 10 µM) 0 | kinase-Nluc reporter destabilization hit call (ZAK; 10 µM) 0 | kinase-Nluc reporter destabilization hit call (ZAP70; 10 µM) 0
1: number of time points (CDK7; 10 µM)

C=CC(=O)Nc1cc(Nc2nccc(-c3cn(C4CC4)c4ccccc34)n2)c(OC)cc1N(C)CCN(C)C [Almonertinib]
0: number of time points (CDK4; 2.5 µM) | number of time points (CDK7; 2.5 µM) | number of time points (CDK9; 2.5 µM)
inactive: kinase-Nluc reporter destabilization hit call (STK38; 2.5 µM) 0 | kinase-Nluc reporter destabilization hit call (SYK; 2.5 µM) 0 | kinase-Nluc reporter destabilization hit call (TEC; 2.5 µM) 0 | kinase-Nluc reporter destabilization hit call (TYK2; 2.5 µM) 0 | kinase-Nluc reporter destabilization hit call (ULK3; 2.5 µM) 0 | kinase-Nluc reporter destabilization hit call (YES1; 2.5 µM) 0 | kinase-Nluc reporter destabilization hit call (ZAK; 2.5 µM) 0 | kinase-Nluc reporter destabilization hit call (ZAP70; 2.5 µM) 0

CCc1nc(C(N)=O)c(Nc2ccc(N3CCC(N4CCN(C)CC4)CC3)c(OC)c2)nc1NC1CCOCC1 [Gilteritinib]
0: number of time points (CDK4; 2 µM) | number of time points (CDK7; 2 µM) | number of time points (CDK9; 2 µM)
inactive: kinase-Nluc reporter destabilization hit call (STK38; 2 µM) 0 | kinase-Nluc reporter destabilization hit call (SYK; 2 µM) 0 | kinase-Nluc reporter destabilization hit call (TEC; 2 µM) 0 | kinase-Nluc reporter destabilization hit call (TYK2; 2 µM) 0 | kinase-Nluc reporter destabilization hit call (ULK3; 2 µM) 0 | kinase-Nluc reporter destabilization hit call (YES1; 2 µM) 0 | kinase-Nluc reporter destabilization hit call (ZAK; 2 µM) 0 | kinase-Nluc reporter destabilization hit call (ZAP70; 2 µM) 0

CN(C)C(=N)NC(=N)N [Metformin]
inactive: kinase-Nluc reporter destabilization hit call (STK38; 10 µM) 0 | kinase-Nluc reporter destabilization hit call (SYK; 10 µM) 0 | kinase-Nluc reporter destabilization hit call (TEC; 10 µM) 0 | kinase-Nluc reporter destabilization hit call (TYK2; 10 µM) 0 | kinase-Nluc reporter destabilization hit call (ULK3; 10 µM) 0 | kinase-Nluc reporter destabilization hit call (YES1; 10 µM) 0 | kinase-Nluc reporter destabilization hit call (ZAK; 10 µM) 0 | kinase-Nluc reporter destabilization hit call (ZAP70; 10 µM) 0
0: number of time points (CDK4; 10 µM) | number of time points (CDK7; 10 µM) | number of time points (CDK9; 10 µM)
